Consider 68 compounds from PubChem BioAssay AID662 (National Center for Advancing Translational Sciences (NCATS), 2007).

Where “and” joins values, the source holds several entries; their conditions need not be identical. Identical values can stand only once. This is one part of the list. Further columns of the screen follow, without active or inactive calls. The list favours compounds with an active or inconclusive main result. Words in brackets tell the shape of the fitted curve; partial curves, single points and poor fits give uncertain potencies.

Broadly, the AC50 is the concentration giving half of the maximal activity seen.

This assay in a line: Cell signaling CRE-BLA (Fsk stim). To be noted: CHO CRE-bla reporter (cAMP response element driving beta-lactamase), forskolin EC10, beta-lactamase ratio; measured here: 460 nm blue channel. Put shortly:
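Modulation of forskolin signalling: compounds in titration series added with EC10 NKH 477 to CHO cells carrying a CRE-driven beta-lactamase reporter, 3 h, 37C. CCF4 FRET ratio (460/530 nm, ex 405 nm) gives %activity and AC50.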
For the compound `O=C(O)c1ccc2cccc(Cl)c2c1O`, the AC50 is 12.6 µM [falling, partial curve].
As to `CCOC(=O)C1=C(C)NC(C)=C(C(=O)OC)[C@@H]1c1cccc(Cl)c1Cl`, the AC50 is 12.6 µM [rising, single point].
The same measure for `Cc1ccccc1-n1c(=O)c2ccccc2n2c(=O)[nH]nc12`: 12.6 µM [rising, partial curve]; for `COc1ccc(-c2nc(-c3ccc(NC(=O)c4ccc(Br)o4)cc3)no2)cc1OC`: 25.1 µM [falling, single point]; for `O=C(O)c1cccc(Cn2cc(Cl)cn2)c1`: 5.01 µM [falling, single point].
The same measure for `COc1cccc(NC(=O)C2C3C=CC4(O3)C2C(=O)N(C2CC2)C4C(=O)NC2CCCCC2C)c1` (stereo not drawn): 10 µM [rising, partial curve].
On to `C=CCn1cc(Cl)c(=O)n(CC=C)c1=O`, for which the AC50 is 3.16 µM [rising, single point].
In the case of `O=C1CCCC2=C1C(c1ccco1)Nc1ccc(C(=O)c3ccccc3)cc1N2` (stereo not drawn) it was 7.94 µM [falling, partial curve]; in that of `O=C(CSc1nc(O)c(Cc2ccccc2F)c(=O)[nH]1)N1CCCCCC1`, 0.631 µM [falling, full curve].
The same measure for `COc1cc2c(cc1OC)CN(S(=O)(=O)c1ccc3c(c1)OCCO3)CC2`: 7.94 µM [falling, partial curve].
As for `CCCSc1nc2c(c(=O)[nH]c(=O)n2C)n1C`, the AC50 is 15.8 µM [rising, single point].
The same measure for `COc1cc(C(Nc2ccc3c(c2)OCO3)C(=O)NC2CCCCC2)cc(OC)c1OC` (stereo not drawn): 0.00398 µM [falling, full curve, poor fit].
In the case of `O=C(NCc1cccs1)C(Cc1ccccc1)NS(=O)(=O)c1cccs1` (stereo not drawn) it was 0.1 µM [falling, partial curve]; in that of `S=c1[nH]nc(Cc2ccccc2)n1-c1ccccc1`, 25.1 µM [rising, single point]; in that of `CN1CCN(C(=O)c2ccc(-c3nn(C)c(=O)c4ccccc34)cc2)CC1`, 12.6 µM [rising, single point].
The same measure for `CCOC(=O)c1cc(C(=O)OCC)cc(-n2c(C)cc(C(=O)CN3CCOCC3)c2C)c1`: 0.251 µM [falling, partial curve].
Turning to `O=S(=O)(c1cccs1)N1CCN(C/C=C/c2ccccc2)CC1`, the AC50 is 0.02 µM [falling, full curve, poor fit].
The same measure for `COc1ccc(CNc2nc(-c3cccc(NS(C)(=O)=O)c3)nc3ccccc23)c(OC)c1`: 0.0794 µM [falling, partial curve].
As to `CC1CN(C(=O)CN2C(=O)c3ccccc3S2(=O)=O)CC(C)O1` (stereo not drawn), the AC50 is 5.01 µM [falling, single point].
Turning to `CCOC(=O)c1sc(=N)n(-c2ccc(OC)cc2)c1C`, the AC50 is 10 µM [rising, partial curve].
With `COc1cccc(Cn2c(=O)c(C)nc3cnc(N(C)C)nc32)c1`, the AC50 was 12.6 µM [rising, partial curve].
For `CN1CCN(c2ccc(NC(=O)Cc3ccccc3)cc2)CC1`, the AC50 was 0.00316 µM [falling, full curve, poor fit].
The same measure for `COC(=O)CCC(=O)Nc1ccc(S(=O)(=O)N2CCCCCC2)cc1`: 0.00398 µM [falling, full curve, poor fit]; for `CCOc1ccc2ccccc2c1C(=O)N[C@@H]1C(=O)N2[C@@H]1SC(C)(C)[C@@H]2C(=O)O`: 7.94 µM [falling, partial curve].
The same measure for `N#Cc1cnn(-c2ccccc2)c1N`: 0.00631 µM [falling, partial curve, poor fit]; for `C=C(C)COc1ccc2c(C)c(CC(=O)OC)c(=O)oc2c1C`: 10 µM [rising, partial curve].
In the case of `COc1cc(-c2nnc(SCC(=O)OC3CCCCC3)o2)cc(OC)c1OC` it was 15.8 µM [rising, single point].
Regarding `Cc1cc(N)ccc1-n1c(C)ccc1C`, the AC50 was 0.0251 µM [falling, full curve, poor fit].
In the case of `COC(=O)Nc1ccc(S(=O)(=O)N2CCCc3ccccc32)cc1` it was 0.0631 µM [falling, single point]; in that of `Cc1ccc(S(=O)(=O)N2CCN(S(=O)(=O)N(C)C)CC2)cc1`, 3.98 µM [rising, single point].
The same measure for `Cn1c(=O)c(C(=O)NC2CCCCCCC2)c(O)c2ccccc21`: 12.6 µM [rising, partial curve]; for `CCOC(=O)CC(=O)CSc1ccc2nnc(-c3ccccc3)n2n1`: 5.01 µM [rising, partial curve].
The same measure for `Cc1nc2ccc(Nc3nc4cc(S(=O)(=O)N5CCOCC5)ccc4o3)cc2s1`: 10 µM [rising, partial curve]; for `Cc1ccc2cccc(NC(=O)c3ccc(Br)o3)c2n1`: 10 µM [rising, single point]; for `NCCCNCCCCN(CCCN)/[N+]([O-])=N/O`: 31.6 µM [falling, partial curve, poor fit].
Consider `O=C(NC1CCCCC1)c1cnn2c(C(F)(F)F)cc(-c3ccco3)nc12`, for which the AC50 is 0.398 µM [rising, full curve].
The same measure for `CC(=O)c1ccc(N2CCN(C(=O)c3ccc(NC(=O)C4CCCO4)cc3)CC2)cc1` (stereo not drawn): 0.1 µM [falling, single point]; for `CC1=NN(c2ccccc2)C(=O)C1`: 15.8 µM [falling, partial curve, poor fit] and 126 nM [falling, full curve, poor fit]; for `CCOc1cc2[nH]c(=O)n(CCCCCC(=O)NCc3ccc4c(c3)OCO4)c(=O)c2cc1OCC`: 12.6 µM [falling, partial curve].
With `O=C(COC(=O)C1CCN(S(=O)(=O)c2cccs2)CC1)c1cc2ccccc2o1`, the AC50 was 3.98 µM [falling, partial curve].
Consider `COc1ccc(C2C3=C(CC(C)(C)CC3=O)Oc3ncn4nc(-c5cccnc5)nc4c32)cc1OC` (stereo not drawn), for which the AC50 is 1.26 µM [rising, full curve].
The same measure for `Nc1ncnc2c1nc(-c1ccccc1)n2[C@H]1O[C@@H](CO)[C@@H](O)[C@H]1O`: 3.98 µM [rising, single point].
In the case of `CC(C)(C)Cn1nc(-c2ccc(Cl)cc2)c2c(N)ncnc21` it was 0.398 µM [rising, full curve]; in that of `CCC(Cl)CC(Cl)C(Cl)C(Cl)C(Cl)C(C)Cl` (stereo not drawn), 2.51 µM [rising, full curve, poor fit].
Take `Cc1ccc2c(Cl)cc(Cl)c(OCC(=O)NC(=O)NCc3ccco3)c2n1`: the AC50 is 12.6 µM [rising, partial curve].
Turning to `O=C(Nc1ccc(F)c(F)c1)NC1CCCCC1`, the AC50 was 0.1 µM [rising, full curve].
The same measure for `CCCOc1ccccc1C1NC(=O)NC(C)=C1C(=O)OCCOC(C)C` (stereo not drawn): 0.00398 µM [falling, full curve, poor fit].
In the case of `Cc1ccc(C2=Nc3ccccc3NC(C)(c3ccc(C)o3)C2)o1` (stereo not drawn) it was 12.6 µM [rising, single point]; in that of `Cc1cc(C)n(-c2ccc(C(=O)Nc3sccc3C(N)=O)cc2)n1`, 5.01 µM [rising, partial curve].
The same measure for `NC(N)=NCCC[C@H](N)C(=O)O`: 31.6 µM [falling, single point]; for `Nc1ccccc1OCCOCCOCCOc1ccccc1N`: 25.1 µM [rising, single point]; for `Cc1ccc2c(c1C)NC(C(=O)O)C1CC=CC21` (stereo not drawn): 3.98 µM [falling, single point].
As to `CC(=O)CC1OC(=O)C(Br)=C1NCc1ccccc1` (stereo not drawn), the AC50 was 10 µM [falling, single point].
In the case of `O=C(C1COc2ccccc2O1)N1CCN(c2ccccc2)CC1` (stereo not drawn) it was 0.00398 µM [falling, full curve]; in that of `Cc1cc(C)n2nc(SCC(=O)Nc3ccc(F)cc3)nc2n1`, 3.98 µM [rising, full curve]; in that of `CCOC(=O)C(C)Sc1nc2c(c(=O)[nH]c(=O)n2C)n1Cc1ccc(Cl)cc1` (stereo not drawn), 15.8 µM [rising, partial curve].
The same measure for `O=C(O)CCCC(=O)N1CCN(c2cccc(Cl)c2)CC1`: 0.398 µM [rising, full curve, poor fit]; for `COc1cc(NC(=O)Nc2cccc(C(C)=O)c2)cc(OC)c1OC`: 12.6 µM [rising, partial curve]; for `Cc1nnc(NC(=O)CCCN2C(=O)c3ccccc3C2=O)s1`: 3.16 µM [rising, single point].
The same measure for `CC1=Nn2c(nnc2-c2ccccc2Cl)SC1`: 2.51 µM [falling, full curve, poor fit]; for `Cn1c(CCCNC(=O)c2cccs2)nc2ccccc21`: 10 µM [rising, partial curve]; for `COc1ccc(C(=O)Nc2cc(C)on2)cc1`: 0.00316 µM [falling, full curve, poor fit].
In the case of `COc1cc(C(=O)OCc2cc3ccccc3[nH]c2=O)cc(OC)c1OC`, the AC50 was 1.26 µM [rising, partial curve].
The same measure for `CCOc1ccc2[nH]c3c(N4CCN(c5ccccn5)CC4)ncnc3c2c1`: 20 µM [falling, single point]; for `N#CCCSc1ncnc2c1oc1ccccc12`: 10 µM [rising, partial curve].
The same measure for `CCCOC(=O)c1cc(=O)[nH]c2ccccc12`: 10 µM [rising, single point] and 12.6 µM [rising, partial curve]; for `Clc1nc2ccccc2nc1Cl`: 25.1 µM [falling, partial curve, poor fit].
In the case of `COc1cc(-c2c(C#N)c(N)nc3c2CCCC3)ccc1O` it was 6.31 µM [rising, partial curve].
